Drug key:
BI-D1870 (1000 nM): CC(C)CCN1c2nc(Nc3cc(F)c(O)c(F)c3)ncc2N(C)C(=O)C1C (stereo not drawn)
PF-562271 (400 nM): CN(c1ncccc1CNc1nc(Nc2ccc3c(c2)CC(=O)N3)ncc1C(F)(F)F)S(C)(=O)=O
GW0742 (10000 nM): Cc1cc(SCc2sc(-c3ccc(C(F)(F)F)c(F)c3)nc2C)ccc1OCC(=O)O
veliparib (7000 nM): C[C@]1(c2nc3c(C(N)=O)cccc3[nH]2)CCCN1
LFM-A13 (10000 nM): C/C(O)=C(\C#N)C(=O)Nc1cc(Br)ccc1Br
ABT-263 (2000 nM): CC1(C)CCC(c2ccc(Cl)cc2)=C(CN2CCN(c3ccc(C(=O)NS(=O)(=O)c4ccc(N[C@H](CCN5CCOCC5)CSc5ccccc5)c(S(=O)(=O)C(F)(F)F)c4)cc3)CC2)C1
PF-04217903 (5000 nM): OCCn1cc(-c2cnc3nnn(Cc4ccc5ncccc5c4)c3n2)cn1
dasatinib (20 nM): Cc1nc(Nc2ncc(C(=O)Nc3c(C)cccc3Cl)s2)cc(N2CCN(CCO)CC2)n1

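Human melanoma cell lines in 1,536-well plates were treated with a pair of drugs for 72 h, then fixed, stained and imaged. Each value is the count of nuclei relative to DMSO-treated wells, in %, so that 100 equals the control. Concentrations were fixed for each drug; these are the higher of two levels. The file gives one value for each pair and line, without errors, so small differences may be noise.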
This is part of the screen, not chosen by result.

| Pair | WM3619 | COLO 800 | COLO 829 | WM451Lu | COLO 792 | C32 |
|---|---|---|---|---|---|---|
| veliparib and ABT-263 | 69.7 | 25.2 | 68.8 | 74.6 | 14.5 | 87.6 |
| LFM-A13 and BI-D1870 | 69.2 | 49.3 | 106 | 65.5 | 80.9 | 93.2 |
| veliparib and dasatinib | 60.8 | 48.6 | 53.9 | 88.9 | 51.4 | 88.7 |
| PF-04217903 and PF-562271 | 64.8 | 64.8 | 55.4 | 63.9 | 58.7 | 63.2 |
| PF-04217903 and LFM-A13 | 94.5 | 61.9 | 101 | 89.6 | 87.0 | 119 |
| dasatinib and ABT-263 | 68.6 | 26.4 | 48.3 | 68.0 | 3.9 | 56.9 |
| GW0742 and PF-562271 | 69.0 | 81.1 | 83.2 | 62.8 | 74.9 | 71.5 |
| veliparib and PF-04217903 | 82.6 | 82.8 | 78.6 | 120 | 106 | 97.3 |
| BI-D1870 and GW0742 | 79.6 | 71.7 | 111 | 90.1 | 76.1 | 92.7 |
| dasatinib and PF-04217903 | 111 | 56.2 | 64.5 | 91.2 | 53.4 | 64.6 |
| dasatinib and LFM-A13 | 59.7 | 94.6 | 75.2 | 64.1 | 44.2 | 99.2 |
| dasatinib and PF-562271 | 67.4 | 57.1 | 41.9 | 41.3 | 49.4 | 40.9 |
| LFM-A13 and GW0742 | 82.1 | 76.3 | 100 | 75.6 | 111 | 118 |
| veliparib and GW0742 | 75.8 | 70.0 | 99.8 | 112 | 90.0 | 85.5 |
| veliparib and LFM-A13 | 83.3 | 52.5 | 89.7 | 122 | 79.2 | 105 |
| ABT-263 and LFM-A13 | 65.7 | 21.9 | 74.2 | 88.9 | 18.4 | 74.3 |
| ABT-263 and GW0742 | 69.4 | 41.0 | 87.0 | 78.1 | 12.6 | 78.0 |
| BI-D1870 and PF-562271 | 61.9 | 81.8 | 93.3 | 60.0 | 65.9 | 75.0 |
| dasatinib and BI-D1870 | 57.2 | 53.5 | 67.3 | 71.1 | 43.1 | 76.4 |
| PF-04217903 and GW0742 | 71.3 | 48.6 | 88.6 | 94.3 | 87.9 | 123 |
| PF-562271 and LFM-A13 | 77.3 | 79.8 | 53.8 | 55.8 | 69.6 | 81.7 |
| BI-D1870 and ABT-263 | 65.5 | 62.0 | 71.5 | 56.1 | 13.7 | 62.1 |
| veliparib and PF-562271 | 82.5 | 26.9 | 51.9 | 63.6 | 63.3 | 73.0 |
| GW0742 and dasatinib | 76.6 | 52.3 | 67.0 | 74.5 | 47.9 | 62.6 |

The first 3 entries again:

Pair,WM3619,COLO 800,COLO 829,WM451Lu,COLO 792,C32
veliparib and ABT-263,69.7,25.2,68.8,74.6,14.5,87.6
LFM-A13 and BI-D1870,69.2,49.3,106,65.5,80.9,93.2
veliparib and dasatinib,60.8,48.6,53.9,88.9,51.4,88.7

Values as published with doi:10.1371/journal.pone.0140310, rounded.